# The other results are listed elsewhere or left out. Most values lie at the level of the controls, where differences are scatter.
# Chains of the proteins cited; added tags and fusions are not shown. Lines headed by an entry give the natural chain unless they say otherwise; changes in a name come on top.
# UniProt Q15276: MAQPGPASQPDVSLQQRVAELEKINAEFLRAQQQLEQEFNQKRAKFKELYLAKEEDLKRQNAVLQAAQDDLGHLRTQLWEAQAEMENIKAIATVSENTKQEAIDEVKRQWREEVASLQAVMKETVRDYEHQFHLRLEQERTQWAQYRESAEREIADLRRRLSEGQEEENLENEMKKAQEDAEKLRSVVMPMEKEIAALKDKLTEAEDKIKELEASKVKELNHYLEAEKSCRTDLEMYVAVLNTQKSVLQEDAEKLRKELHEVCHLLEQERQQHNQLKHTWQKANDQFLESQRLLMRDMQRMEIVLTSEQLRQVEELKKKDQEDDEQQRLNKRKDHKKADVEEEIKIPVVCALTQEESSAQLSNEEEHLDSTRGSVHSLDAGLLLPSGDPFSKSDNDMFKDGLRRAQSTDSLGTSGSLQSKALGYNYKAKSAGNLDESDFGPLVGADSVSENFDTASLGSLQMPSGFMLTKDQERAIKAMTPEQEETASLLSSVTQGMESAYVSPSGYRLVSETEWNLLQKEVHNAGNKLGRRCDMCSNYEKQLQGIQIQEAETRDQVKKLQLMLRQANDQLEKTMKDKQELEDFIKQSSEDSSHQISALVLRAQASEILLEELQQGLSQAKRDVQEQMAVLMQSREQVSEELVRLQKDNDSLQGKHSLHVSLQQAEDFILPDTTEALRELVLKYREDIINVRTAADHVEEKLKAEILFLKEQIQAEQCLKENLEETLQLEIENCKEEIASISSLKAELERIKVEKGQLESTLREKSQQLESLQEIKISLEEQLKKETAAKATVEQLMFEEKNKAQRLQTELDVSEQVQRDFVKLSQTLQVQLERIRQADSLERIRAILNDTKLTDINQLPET
# UniProt Q15742: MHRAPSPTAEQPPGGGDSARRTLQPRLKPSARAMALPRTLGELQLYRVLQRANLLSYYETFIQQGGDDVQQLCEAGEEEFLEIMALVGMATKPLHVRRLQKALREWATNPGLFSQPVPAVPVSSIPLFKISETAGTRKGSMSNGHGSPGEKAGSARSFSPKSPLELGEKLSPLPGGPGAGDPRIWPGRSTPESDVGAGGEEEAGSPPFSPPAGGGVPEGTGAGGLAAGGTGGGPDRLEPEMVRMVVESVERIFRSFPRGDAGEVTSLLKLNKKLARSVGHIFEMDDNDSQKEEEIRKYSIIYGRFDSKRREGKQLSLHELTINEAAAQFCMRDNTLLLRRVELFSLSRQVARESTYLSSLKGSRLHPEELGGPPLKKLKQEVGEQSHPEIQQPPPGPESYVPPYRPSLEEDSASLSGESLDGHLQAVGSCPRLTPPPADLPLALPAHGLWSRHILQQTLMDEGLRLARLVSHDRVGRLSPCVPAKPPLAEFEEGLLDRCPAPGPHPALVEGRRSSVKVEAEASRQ
# UniProt Q16206: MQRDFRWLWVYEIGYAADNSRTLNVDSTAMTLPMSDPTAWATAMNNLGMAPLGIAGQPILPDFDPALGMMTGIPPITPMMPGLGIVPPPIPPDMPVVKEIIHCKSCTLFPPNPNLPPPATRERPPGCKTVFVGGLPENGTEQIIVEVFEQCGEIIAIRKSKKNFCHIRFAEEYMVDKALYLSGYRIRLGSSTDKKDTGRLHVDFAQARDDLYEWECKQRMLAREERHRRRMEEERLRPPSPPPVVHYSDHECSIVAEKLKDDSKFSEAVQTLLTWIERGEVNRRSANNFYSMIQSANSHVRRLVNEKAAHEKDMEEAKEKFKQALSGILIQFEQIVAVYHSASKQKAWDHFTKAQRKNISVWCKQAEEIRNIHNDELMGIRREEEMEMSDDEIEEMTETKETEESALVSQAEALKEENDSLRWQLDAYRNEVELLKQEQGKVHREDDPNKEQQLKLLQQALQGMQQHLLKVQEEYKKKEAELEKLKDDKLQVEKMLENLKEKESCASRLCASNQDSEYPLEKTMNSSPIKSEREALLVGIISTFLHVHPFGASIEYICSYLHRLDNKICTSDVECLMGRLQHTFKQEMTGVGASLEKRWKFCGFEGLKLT
# UniProt Q15155: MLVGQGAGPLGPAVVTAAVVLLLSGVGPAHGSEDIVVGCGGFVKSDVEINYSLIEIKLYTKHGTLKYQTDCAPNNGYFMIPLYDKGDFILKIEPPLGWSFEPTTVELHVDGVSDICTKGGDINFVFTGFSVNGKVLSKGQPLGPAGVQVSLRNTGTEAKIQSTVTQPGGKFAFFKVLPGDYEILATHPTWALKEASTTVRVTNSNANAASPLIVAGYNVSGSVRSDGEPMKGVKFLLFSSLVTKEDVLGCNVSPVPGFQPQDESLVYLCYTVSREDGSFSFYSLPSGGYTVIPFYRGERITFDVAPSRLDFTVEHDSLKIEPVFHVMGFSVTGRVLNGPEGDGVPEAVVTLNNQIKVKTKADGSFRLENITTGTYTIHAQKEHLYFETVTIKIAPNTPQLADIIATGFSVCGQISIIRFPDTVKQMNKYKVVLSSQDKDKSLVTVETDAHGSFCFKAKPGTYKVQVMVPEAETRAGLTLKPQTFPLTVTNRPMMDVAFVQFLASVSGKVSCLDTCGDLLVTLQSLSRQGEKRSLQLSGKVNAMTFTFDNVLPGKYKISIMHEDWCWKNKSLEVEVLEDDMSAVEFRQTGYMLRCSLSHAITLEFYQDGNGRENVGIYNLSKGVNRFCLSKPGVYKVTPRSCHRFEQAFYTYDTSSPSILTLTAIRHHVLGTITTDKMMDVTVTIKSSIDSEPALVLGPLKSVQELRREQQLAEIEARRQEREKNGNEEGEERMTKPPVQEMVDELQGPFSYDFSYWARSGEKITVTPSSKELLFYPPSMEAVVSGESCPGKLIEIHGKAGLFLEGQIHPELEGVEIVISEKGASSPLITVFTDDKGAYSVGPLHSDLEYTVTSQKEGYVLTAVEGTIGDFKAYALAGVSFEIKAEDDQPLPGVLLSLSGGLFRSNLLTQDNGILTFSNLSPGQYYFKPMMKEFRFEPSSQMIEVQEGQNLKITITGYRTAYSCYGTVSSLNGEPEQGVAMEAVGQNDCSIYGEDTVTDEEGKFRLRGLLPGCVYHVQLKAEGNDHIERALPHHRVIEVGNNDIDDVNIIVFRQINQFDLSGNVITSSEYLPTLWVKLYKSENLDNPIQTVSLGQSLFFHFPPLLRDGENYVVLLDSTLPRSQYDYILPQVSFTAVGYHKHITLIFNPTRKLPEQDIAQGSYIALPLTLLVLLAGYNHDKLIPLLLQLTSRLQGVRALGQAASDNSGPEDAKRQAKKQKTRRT
# UniProt Q15691: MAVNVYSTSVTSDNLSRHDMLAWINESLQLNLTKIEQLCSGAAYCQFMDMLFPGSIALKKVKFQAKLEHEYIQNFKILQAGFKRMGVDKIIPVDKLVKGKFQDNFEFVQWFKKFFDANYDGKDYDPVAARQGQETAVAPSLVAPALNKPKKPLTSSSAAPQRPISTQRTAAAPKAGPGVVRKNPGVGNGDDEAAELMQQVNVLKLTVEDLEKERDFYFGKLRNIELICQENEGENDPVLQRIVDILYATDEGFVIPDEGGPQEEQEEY
# UniProt Q15072: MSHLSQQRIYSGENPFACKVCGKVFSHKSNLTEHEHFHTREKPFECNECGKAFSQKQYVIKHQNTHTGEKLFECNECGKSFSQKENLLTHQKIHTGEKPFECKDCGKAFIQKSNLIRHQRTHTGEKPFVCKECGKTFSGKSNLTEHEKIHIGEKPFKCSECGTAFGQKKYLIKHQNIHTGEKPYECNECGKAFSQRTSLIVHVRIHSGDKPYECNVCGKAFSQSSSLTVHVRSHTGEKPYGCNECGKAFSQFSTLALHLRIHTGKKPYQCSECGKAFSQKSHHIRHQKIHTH
# UniProt Q15437: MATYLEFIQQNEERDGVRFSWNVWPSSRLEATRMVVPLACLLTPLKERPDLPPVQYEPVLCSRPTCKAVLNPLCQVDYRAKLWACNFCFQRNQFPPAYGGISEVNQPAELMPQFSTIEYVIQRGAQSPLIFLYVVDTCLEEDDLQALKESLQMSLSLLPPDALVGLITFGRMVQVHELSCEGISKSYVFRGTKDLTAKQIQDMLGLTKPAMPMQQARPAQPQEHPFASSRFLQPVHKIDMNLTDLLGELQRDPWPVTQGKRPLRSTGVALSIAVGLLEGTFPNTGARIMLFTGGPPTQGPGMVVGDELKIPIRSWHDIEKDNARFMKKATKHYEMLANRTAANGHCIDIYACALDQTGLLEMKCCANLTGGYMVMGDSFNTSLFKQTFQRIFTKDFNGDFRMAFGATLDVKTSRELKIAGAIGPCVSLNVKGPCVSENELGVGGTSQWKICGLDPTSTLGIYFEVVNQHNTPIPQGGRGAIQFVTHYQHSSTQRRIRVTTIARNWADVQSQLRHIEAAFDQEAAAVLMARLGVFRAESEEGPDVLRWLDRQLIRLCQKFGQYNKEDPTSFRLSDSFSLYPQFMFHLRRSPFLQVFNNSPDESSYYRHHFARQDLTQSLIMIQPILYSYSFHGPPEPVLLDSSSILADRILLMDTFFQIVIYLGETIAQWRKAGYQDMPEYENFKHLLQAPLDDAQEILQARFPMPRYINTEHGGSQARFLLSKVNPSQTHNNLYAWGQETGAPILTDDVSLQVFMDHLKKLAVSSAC
# UniProt Q15361: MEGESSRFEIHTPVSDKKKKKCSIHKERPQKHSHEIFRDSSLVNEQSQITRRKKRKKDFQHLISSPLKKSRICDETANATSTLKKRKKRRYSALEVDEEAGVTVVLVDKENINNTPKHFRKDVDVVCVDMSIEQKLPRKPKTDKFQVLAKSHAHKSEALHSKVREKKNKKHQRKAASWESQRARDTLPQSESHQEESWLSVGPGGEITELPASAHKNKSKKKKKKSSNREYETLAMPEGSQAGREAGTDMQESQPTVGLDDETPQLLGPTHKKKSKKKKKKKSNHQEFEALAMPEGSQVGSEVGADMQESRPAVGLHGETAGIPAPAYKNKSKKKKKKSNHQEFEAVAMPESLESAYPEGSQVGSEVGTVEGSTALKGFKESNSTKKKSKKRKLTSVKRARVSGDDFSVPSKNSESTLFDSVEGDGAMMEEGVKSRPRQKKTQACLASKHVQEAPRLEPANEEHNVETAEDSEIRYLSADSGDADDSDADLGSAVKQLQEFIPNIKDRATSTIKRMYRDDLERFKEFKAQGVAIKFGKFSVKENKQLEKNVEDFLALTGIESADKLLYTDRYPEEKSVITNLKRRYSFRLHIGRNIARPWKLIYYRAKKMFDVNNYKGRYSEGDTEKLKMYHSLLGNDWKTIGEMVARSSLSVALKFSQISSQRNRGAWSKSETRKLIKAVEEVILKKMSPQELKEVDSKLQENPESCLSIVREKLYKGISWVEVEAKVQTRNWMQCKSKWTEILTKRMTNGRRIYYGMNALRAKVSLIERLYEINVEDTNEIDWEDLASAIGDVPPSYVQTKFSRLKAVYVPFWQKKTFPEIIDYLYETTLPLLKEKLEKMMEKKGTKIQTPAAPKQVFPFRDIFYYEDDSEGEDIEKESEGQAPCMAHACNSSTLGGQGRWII
# UniProt Q16531, whole entry: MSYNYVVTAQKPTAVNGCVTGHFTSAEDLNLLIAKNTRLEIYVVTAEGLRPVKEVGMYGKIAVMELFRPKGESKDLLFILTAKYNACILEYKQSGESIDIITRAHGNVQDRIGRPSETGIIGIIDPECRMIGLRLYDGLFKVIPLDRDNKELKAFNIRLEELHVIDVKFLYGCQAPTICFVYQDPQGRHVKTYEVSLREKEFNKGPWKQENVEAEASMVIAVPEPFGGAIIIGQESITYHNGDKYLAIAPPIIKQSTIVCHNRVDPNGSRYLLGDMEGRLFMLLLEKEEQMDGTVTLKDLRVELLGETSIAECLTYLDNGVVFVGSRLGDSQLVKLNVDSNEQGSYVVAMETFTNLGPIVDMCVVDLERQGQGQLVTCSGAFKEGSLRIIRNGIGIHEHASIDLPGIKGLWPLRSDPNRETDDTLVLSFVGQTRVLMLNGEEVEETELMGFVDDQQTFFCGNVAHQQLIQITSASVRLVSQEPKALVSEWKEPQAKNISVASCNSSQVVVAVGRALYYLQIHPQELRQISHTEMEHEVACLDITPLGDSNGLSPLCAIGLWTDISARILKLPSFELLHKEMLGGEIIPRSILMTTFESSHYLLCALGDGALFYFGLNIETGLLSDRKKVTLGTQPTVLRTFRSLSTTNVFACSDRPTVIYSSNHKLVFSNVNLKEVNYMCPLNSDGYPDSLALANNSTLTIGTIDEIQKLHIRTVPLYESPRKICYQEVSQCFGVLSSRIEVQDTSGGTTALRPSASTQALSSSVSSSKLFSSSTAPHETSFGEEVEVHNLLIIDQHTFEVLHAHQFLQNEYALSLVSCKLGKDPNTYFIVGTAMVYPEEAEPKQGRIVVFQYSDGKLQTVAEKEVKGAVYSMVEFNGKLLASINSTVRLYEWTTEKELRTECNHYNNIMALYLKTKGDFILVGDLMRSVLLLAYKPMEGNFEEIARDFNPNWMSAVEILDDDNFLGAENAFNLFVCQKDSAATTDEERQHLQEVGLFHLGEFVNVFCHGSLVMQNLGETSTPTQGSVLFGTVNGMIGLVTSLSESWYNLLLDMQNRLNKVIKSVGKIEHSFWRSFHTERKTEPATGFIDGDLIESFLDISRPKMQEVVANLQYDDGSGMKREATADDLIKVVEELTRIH
# Compound: Cc1nc(Nc2ncc(C(=O)Nc3c(C)cccc3Cl)s2)cc(N2CCN(CCO)CC2)n1 [dasatinib]
# Assay: log2 fold change of tryptic peptide abundance, ligand vs vehicle (limited proteolysis) (log2 ratio); higher = more trypsin-susceptible (destabilized)
# Conditions: ligand concentration: 5 uM; sample: K562 cleared lysate
row,Target,log2 fold change
1,"RABEP1 (peptide sequence: SVLQEDAEKLRK, peptide start residue: 246) (UniProt Q15276)",-0.27
2,"CCDC57 (peptide sequence: AGELQDLEAMSR, peptide start residue: 246) (UniProt Q2TAC2)",0.591
3,"IMMT (peptide sequence: EVAGAKPHITAAEGK, peptide start residue: 316) (UniProt Q16891)",0.339
4,"PPP2R5A (peptide sequence: FLESPDFQPSIAKR, peptide start residue: 169) (UniProt Q15172)",-0.329
5,"ZNF77 (peptide sequence: AYSFSSSLR, peptide start residue: 416) (UniProt Q15935)",0.141
6,"SHROOM1 (peptide sequence: LLQDQLDAIR, peptide start residue: 812) (UniProt Q2M3G4)",0.497
7,"UniProt Q15750 (peptide sequence: QTSLDAVAQAVVDRVK, peptide start residue: 320)",0.129
8,"MAP7D1 (peptide sequence: RKPNAGGSPAPVR, peptide start residue: 392) (UniProt Q3KQU3)",-0.363
9,"USF2 (peptide sequence: QQIEELKNENALLR, peptide start residue: 316) (UniProt Q15853)",0.412
10,"QSER1 (peptide sequence: IQLYSLYHSLHHYK, peptide start residue: 1666) (UniProt Q2KHR3)",-0.7
11,"NSDHL (peptide sequence: THLTEDTPK, peptide start residue: 16) (UniProt Q15738)",0.0615
12,"NAB2 (peptide sequence: SSVKVEAEASRQ, peptide start residue: 514) (UniProt Q15742)",0.248
13,"UniProt Q16206 (peptide sequence: DDLYEWECK, peptide start residue: 209)",-0.24
14,"NOMO1 (peptide sequence: ALGQAASDNSGPEDAKR, peptide start residue: 1196) (UniProt Q15155)",-0.109
15,"UniProt Q15370 (peptide sequence: RPPDEQR, peptide start residue: 37)",0.379
16,"SNX17 (peptide sequence: SPPLLESPDATR, peptide start residue: 415) (UniProt Q15036)",-0.141
17,"ZRSR2 (peptide sequence: LKEQWEEQQR, peptide start residue: 107) (UniProt Q15696)",0.434
18,"SLC39A14 (peptide sequence: DQEEGVMEK, peptide start residue: 268) (UniProt Q15043)",0.0972
19,"HNRNPA1L2 (peptide sequence: EDSQRPGAHLTVKK, peptide start residue: 93) (UniProt Q32P51)",0.132
20,"UniProt Q32P28 (peptide sequence: EADFKDLETQPHMQEFR, peptide start residue: 194)",0.431
21,"TWISTNB (peptide sequence: SEVSEEVTENGTEEAAKKPK, peptide start residue: 208) (UniProt Q3B726)",0.263
22,"MYLK (peptide sequence: SASKEELK, peptide start residue: 517) (UniProt Q15746)",-0.0736
23,"MAPRE1 (peptide sequence: IIPVDKLVK, peptide start residue: 90) (UniProt Q15691)",-0.168
24,"ZNF146 (peptide sequence: CSECGTAFGQK, peptide start residue: 158) (UniProt Q15072)",0.532
25,"SEC23B (peptide sequence: FLQPVHK, peptide start residue: 231) (UniProt Q15437)",0.47
26,"TTF1 (peptide sequence: HSHEIFR, peptide start residue: 32) (UniProt Q15361)",-0.408
27,"PLCL1 (peptide sequence: KMLTAYDLMIQESR, peptide start residue: 966) (UniProt Q15111)",0.363
28,"DDB1 (peptide sequence: TVPLYESPRK, peptide start residue: 714) (UniProt Q16531)",0.231

# Entries 19 through 20 of the list above:
row,Target,log2 fold change
19,"HNRNPA1L2 (peptide sequence: EDSQRPGAHLTVKK, peptide start residue: 93) (UniProt Q32P51)",0.132
20,"UniProt Q32P28 (peptide sequence: EADFKDLETQPHMQEFR, peptide start residue: 194)",0.431

# From the supplement of paper PMC12819154, “High-throughput peptide-centric local stability assay extends protein–ligand identification to membrane proteins, tissues and bacteria” (Nature Structural & Molecular Biology, 2025)
